Results are given in words; binding and its absence hold for the method and conditions named. In cells and extracts the contact can be indirect. A yes stands for co-enrichment or nearness to the bait. Other partners may have been found.
Molecular target: FLAG-SlASAT4 (Solanum lycopersicum (tomato))
Assay: affinity purification with mass spectrometry; HA-SlASAT1, FLAG-SlASAT4 and untagged SlASAT2 and SlASAT3 co-expressed in N. benthamiana leaves; IP with anti-FLAG magnetic beads (bait FLAG-SlASAT4), high detergent stringency; proteomics (DIA-PASEF) searched against the N. benthamiana database with SlASAT1-SlASAT4; empty vector control

Chains of the proteins cited; added tags and fusions are not shown. Lines headed by an entry give the natural chain unless they say otherwise; changes in a name come on top.
UniProt A0A0U3JNE4: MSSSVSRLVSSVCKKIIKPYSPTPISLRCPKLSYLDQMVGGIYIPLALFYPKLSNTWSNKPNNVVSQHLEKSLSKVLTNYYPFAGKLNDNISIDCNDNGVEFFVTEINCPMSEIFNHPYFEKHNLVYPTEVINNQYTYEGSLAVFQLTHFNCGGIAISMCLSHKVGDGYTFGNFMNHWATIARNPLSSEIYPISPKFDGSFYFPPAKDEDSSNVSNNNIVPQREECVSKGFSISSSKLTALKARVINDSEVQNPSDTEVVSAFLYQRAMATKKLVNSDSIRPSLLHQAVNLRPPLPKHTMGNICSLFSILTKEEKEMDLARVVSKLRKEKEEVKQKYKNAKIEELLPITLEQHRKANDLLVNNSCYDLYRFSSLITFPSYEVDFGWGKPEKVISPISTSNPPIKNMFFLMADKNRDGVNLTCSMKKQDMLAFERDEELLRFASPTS

- binding: binds
Substance: untagged SlASAT2 (from UniProt A0A0U3JNE4) (enzyme)

— publication PMC13415957
